Publication PMC8080680
No constants are given. Whether binding was seen depends on the method and setting. In cells and extracts the contact can be indirect. Some binding calls cover weakened binding; strength is not graded here.

By UniProt entry, the sequences of proteins in these tests, tags left out.
UniProt Q12778: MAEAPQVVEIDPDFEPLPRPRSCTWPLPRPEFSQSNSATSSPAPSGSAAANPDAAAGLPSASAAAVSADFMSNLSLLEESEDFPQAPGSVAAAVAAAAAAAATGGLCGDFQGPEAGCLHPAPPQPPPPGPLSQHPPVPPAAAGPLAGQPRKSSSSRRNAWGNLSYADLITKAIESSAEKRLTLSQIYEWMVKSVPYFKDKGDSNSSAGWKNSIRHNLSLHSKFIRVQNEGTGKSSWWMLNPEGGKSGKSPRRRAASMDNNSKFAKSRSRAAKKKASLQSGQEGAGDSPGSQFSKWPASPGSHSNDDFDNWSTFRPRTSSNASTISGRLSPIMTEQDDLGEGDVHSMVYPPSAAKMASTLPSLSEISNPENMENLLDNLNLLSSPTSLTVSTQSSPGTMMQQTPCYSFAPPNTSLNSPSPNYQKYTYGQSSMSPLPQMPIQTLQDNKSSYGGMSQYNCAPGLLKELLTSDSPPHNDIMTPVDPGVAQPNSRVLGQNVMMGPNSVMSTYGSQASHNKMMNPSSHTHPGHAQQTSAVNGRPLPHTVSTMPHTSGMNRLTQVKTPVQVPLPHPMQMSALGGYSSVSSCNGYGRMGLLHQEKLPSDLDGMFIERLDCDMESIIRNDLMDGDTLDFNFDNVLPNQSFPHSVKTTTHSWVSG

Biological target: T1, SET8 (human (endogenous in HUVECs)) (UniProt Q9NQR1)
T1 sequence: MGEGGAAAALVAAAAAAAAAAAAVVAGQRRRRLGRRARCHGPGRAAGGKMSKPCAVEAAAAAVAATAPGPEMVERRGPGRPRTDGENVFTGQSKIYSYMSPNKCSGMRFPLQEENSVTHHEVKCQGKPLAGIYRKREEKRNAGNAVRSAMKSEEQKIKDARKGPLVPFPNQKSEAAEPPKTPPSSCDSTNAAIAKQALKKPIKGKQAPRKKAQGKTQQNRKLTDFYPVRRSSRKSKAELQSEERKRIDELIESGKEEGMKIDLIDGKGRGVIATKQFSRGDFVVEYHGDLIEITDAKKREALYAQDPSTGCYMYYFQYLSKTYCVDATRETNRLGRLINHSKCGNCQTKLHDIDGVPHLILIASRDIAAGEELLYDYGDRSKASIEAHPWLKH
Test: co-IP; endogenous IP from HUVEC cell extracts; primary antibodies and protein A/G Dynabeads, 4 °C overnight; input, IgG and IP extracts analysed by western blot

forkhead box protein O1 (FOXO1) (from UniProt Q12778 1-655)
binding: binds
